From PubChem BioAssay AID743255 (National Center for Advancing Translational Sciences (NCATS), 2014)
The whole screen tested about 390,000 compounds, of which about 910 (0.23%) were called active. This list was built around the results that the source calls inconclusive (neither active nor inactive); the mix of calls is not that of the screen. The call rests on the fitted dose curve; in most records, active means well fitted inhibition curve with a large enough effect; inconclusive means small, poorly fitted or top-dose-only effect; inactive means no such curve, though single readings can be large or run the other way. Potencies of inconclusive entries are doubtful fits and often do not repeat.

Sequences of proteins named here, by UniProt entry; tags and fusion partners are left off. A change or cut given only in a name is not applied to a line headed by its entry.
UniProt O94782: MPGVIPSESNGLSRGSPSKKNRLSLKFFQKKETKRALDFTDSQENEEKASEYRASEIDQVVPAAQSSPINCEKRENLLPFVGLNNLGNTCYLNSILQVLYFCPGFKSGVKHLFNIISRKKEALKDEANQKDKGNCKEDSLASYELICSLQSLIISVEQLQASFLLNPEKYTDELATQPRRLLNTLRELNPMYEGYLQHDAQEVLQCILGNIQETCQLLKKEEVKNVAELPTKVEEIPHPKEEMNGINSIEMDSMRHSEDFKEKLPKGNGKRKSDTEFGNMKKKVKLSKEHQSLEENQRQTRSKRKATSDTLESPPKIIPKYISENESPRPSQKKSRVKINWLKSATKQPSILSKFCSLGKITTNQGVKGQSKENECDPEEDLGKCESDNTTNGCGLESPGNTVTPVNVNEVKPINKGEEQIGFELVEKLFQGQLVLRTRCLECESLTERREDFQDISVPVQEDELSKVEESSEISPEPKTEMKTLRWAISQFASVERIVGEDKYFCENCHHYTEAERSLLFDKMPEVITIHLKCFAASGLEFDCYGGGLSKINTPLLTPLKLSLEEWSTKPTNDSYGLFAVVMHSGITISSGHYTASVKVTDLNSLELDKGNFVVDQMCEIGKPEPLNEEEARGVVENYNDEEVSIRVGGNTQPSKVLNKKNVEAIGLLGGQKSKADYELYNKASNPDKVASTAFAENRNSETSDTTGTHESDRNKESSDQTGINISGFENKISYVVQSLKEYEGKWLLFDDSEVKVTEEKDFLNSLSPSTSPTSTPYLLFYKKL

biological target: Ubiquitin carboxyl-terminal hydrolase 1 (Homo sapiens) (UniProt O94782); experiment: Inhibitors of USP1/UAF1: Primary Screen; details: recombinant USP1/UAF1, Ub-Rhodamine cleavage fluorescence; series mostly up to 57.1 µM; further: nearly all actives have a fitted effect of over 60% in size
Procedure, shortened: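 In this screen, compounds sit with the deubiquitinase complex (1nM) for 15 min at room temperature before Ub-Rho is added at 150nM final. Fluorescence rise is then followed for 6 reads every 60 seconds.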
Potency means the concentration at half of the fitted maximal effect.

Potency, active:
CCOC(=O)c1c(CN(C)C)n(C)c2c(O)c(N=NC(N)=O)c3ccc(Br)cc3c12 35.5 µM

Potency, inconclusive:
N#C/C(=C\c1ccc(-c2ccc(C(=O)O)cc2)o1)C(=O)NCC1CCCO1 (stereo unspecified) 28.2 µM [inhibitor, partial curve], CCN1C(=O)[C@H]2[C@@H](c3ccc(C)cc3)N3C(=O)N(c4cccc(Cl)c4)C(=O)[C@@]3(CC)[C@H]2C1=O 2 µM [inhibitor, full curve, poor fit], Cc1cccc(C)c1NC(=O)CSc1nnnn1C 5.62 µM [inhibitor, single point], CN1/C(=C\C(=O)COC(=O)c2ccccc2O)C(C)(C)c2ccccc21 50.1 µM [inhibitor, partial curve, poor fit], COc1ccc([C@H]2CC(=O)C=C(c3cc(C)ccc3OC)C2)cc1 8.91 µM [inhibitor, partial curve, poor fit], CC(C)Oc1ccc(CNC(=O)c2ccc3nc(SCc4ccc(F)cc4)n(C)c3c2)cc1 0.316 µM [inhibitor, full curve, poor fit], Cc1ccccc1-c1c(C)oc2cc(O)ccc2c1=O 25.1 µM [inhibitor, single point], CC1(C)COCN1C(=O)c1ccc(Cl)c(Cl)c1 0.708 µM [inhibitor, full curve, poor fit], O=c1cc(N/N=C/c2ccccc2)[nH]c(=O)[nH]1 39.8 µM [inhibitor, partial curve, poor fit], CCCN1C(C(=O)c2ccccc2)=C(OC(=O)c2ccc(F)cc2)c2ccccc2S1(=O)=O 31.6 µM [inhibitor, single point], COc1ccc(CCN(C(=O)C(F)(F)F)C(C(=O)NC2CCCC2)c2cccs2)cc1 (stereo unspecified) 0.251 µM [inhibitor, full curve, poor fit], O=C(CN1C(=O)CSc2ccc(S(=O)(=O)N3CCCCC3)cc21)NCc1ccc(F)cc1Cl 0.708 µM [inhibitor, full curve], COc1cccc(-c2nn(-c3ccccc3)cc2/C=C(\C#N)C(=O)NCCCn2ccnc2)c1 17.8 µM [inhibitor, partial curve], Cc1ccc(/C=C2/NC(=O)N(Cc3ccccc3)C2=O)s1 31.6 µM [inhibitor, single point], Cc1ccc2[nH]c3c(c2c1)CN(C(=O)CN1CCN(c2ccccn2)CC1)CC3 35.5 µM [inhibitor, partial curve], Cc1cc(SCC(=O)c2ccc(O)c(O)c2)n2nc(C)c(-c3ccccc3)c2n1 35.5 µM [inhibitor, partial curve], COc1ccccc1NC(=O)Nc1ccnn1C1CCN(C(=O)C2CCOC2)CC1 (stereo unspecified) 0.251 µM [inhibitor, full curve, poor fit], CCc1ccc(NC(=O)CCNS(=O)(=O)c2cccc3nsnc23)cc1 3.98 µM [inhibitor, partial curve], Cc1ccc(/C=N/c2sc(Cc3ccccc3)c(C)c2C(N)=O)o1 31.6 µM [inhibitor, partial curve], Cn1c(C(=O)OCC(=O)NCCc2ccccc2)cc2sccc21 22.4 µM [inhibitor, single point], COc1cccc(/C=C2\SC(=S)N(CCCC(=O)N3CCCC3)C2=O)c1 70.8 µM [inhibitor, partial curve, poor fit], O=c1c2ccccc2n(Cc2c(F)cccc2Cl)c(=O)n1CCc1ccccc1 0.398 µM [inhibitor, full curve], O=c1c2ccccc2nnn1-c1ccccc1[N+](=O)[O-] 0.355 µM [inhibitor, full curve, poor fit], O=C1C=C(c2ccc3cc[nH]c3c2)C[C@@H](c2ccc3c(c2)OCO3)C1 6.31 µM [inhibitor, single point], C=CCSc1nnc(C)c(/C=C/Nc2ccc(Cl)cc2)n1 31.6 µM [inhibitor, partial curve], O=C(Cc1ccc(NC(=O)C2CCCN(C(=O)C3CCC3)C2)cc1)Nc1cccc(C(=O)N2CCCCC2)c1 (stereo unspecified) 50.1 µM [inhibitor, partial curve, poor fit], CCSc1ncc(Cl)c(C(=O)Nc2c(C(=O)Nc3ccccc3)oc3ccccc23)n1 70.8 µM [inhibitor, partial curve, poor fit], Fc1ccc(N2CCN(c3nc(-c4ccco4)cc(C(F)(F)F)n3)CC2)cc1 44.7 µM [inhibitor, partial curve, poor fit], COc1ccc(C2(C)NC(=O)N(CC(=O)NC3CC3)C2=O)cc1 (stereo unspecified) 1.41 µM [inhibitor, partial curve], Cc1ccc(Cl)cc1-n1c(SCC(=O)NCCC2=CCCCC2)nc2n[nH]c(C)c2c1=N 79.4 µM [inhibitor, partial curve, poor fit]

Potency, inactive:
C=CCNC(=O)C1CC(=O)N(c2ccc(OCC(=O)Nc3c(C)cccc3C)cc2)C1 (stereo unspecified), CC(=O)Nc1ccc(N2CCOCC2)c(S(=O)(=O)Nc2ccccc2Cl)c1, COc1cccc(C(=O)CN2CCN(S(=O)(=O)c3ccc(Cl)cc3)CC2)c1, CS(=O)(=O)N1Cc2ccccc2CC1C(=O)O (stereo unspecified), Cc1cccc(Nc2c(-c3ccsc3)nc3nc(C)cc(C)n23)c1, Cc1cc2c(cc3c(SCc4ccc(Cl)cc4)nncn32)o1, CC(C(=O)OCC(=O)c1ccccc1)N1C(=O)c2ccccc2C1=O (stereo unspecified), CCC[N+](CC#Cc1ccccc1)(CCC)CC(=O)OC, CCCn1c(C)cc(-c2csc(N)n2)c1C, CCN(CC)C(=O)Cn1c(=O)n(CC2CCC(C(=O)NC)CC2)c(=O)c2sccc21 (stereo unspecified)
